{"sequences": {"note": "The chains behind the UniProt entries cited, without tags or fusion partners.", "UniProt P35222": "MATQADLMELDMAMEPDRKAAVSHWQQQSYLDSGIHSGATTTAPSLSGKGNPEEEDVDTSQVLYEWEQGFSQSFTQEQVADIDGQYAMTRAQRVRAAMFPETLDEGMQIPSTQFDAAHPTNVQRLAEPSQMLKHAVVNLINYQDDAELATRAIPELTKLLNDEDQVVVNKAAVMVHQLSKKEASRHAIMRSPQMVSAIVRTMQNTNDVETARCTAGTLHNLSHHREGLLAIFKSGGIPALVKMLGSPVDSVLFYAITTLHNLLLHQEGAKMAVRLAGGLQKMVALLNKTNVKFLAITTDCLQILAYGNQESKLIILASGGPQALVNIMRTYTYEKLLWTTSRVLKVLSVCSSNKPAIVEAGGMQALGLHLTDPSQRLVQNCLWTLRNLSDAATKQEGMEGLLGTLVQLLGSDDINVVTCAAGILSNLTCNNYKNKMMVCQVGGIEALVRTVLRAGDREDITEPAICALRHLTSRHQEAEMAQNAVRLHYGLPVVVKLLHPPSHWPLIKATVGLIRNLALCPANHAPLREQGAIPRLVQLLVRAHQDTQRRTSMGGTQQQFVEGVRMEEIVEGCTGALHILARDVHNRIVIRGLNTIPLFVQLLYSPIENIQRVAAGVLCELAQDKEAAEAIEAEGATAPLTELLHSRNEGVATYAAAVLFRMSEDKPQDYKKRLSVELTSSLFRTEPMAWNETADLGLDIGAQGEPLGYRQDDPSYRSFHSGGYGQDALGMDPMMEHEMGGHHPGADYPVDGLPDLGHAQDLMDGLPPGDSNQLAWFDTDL", "UniProt Q16665": "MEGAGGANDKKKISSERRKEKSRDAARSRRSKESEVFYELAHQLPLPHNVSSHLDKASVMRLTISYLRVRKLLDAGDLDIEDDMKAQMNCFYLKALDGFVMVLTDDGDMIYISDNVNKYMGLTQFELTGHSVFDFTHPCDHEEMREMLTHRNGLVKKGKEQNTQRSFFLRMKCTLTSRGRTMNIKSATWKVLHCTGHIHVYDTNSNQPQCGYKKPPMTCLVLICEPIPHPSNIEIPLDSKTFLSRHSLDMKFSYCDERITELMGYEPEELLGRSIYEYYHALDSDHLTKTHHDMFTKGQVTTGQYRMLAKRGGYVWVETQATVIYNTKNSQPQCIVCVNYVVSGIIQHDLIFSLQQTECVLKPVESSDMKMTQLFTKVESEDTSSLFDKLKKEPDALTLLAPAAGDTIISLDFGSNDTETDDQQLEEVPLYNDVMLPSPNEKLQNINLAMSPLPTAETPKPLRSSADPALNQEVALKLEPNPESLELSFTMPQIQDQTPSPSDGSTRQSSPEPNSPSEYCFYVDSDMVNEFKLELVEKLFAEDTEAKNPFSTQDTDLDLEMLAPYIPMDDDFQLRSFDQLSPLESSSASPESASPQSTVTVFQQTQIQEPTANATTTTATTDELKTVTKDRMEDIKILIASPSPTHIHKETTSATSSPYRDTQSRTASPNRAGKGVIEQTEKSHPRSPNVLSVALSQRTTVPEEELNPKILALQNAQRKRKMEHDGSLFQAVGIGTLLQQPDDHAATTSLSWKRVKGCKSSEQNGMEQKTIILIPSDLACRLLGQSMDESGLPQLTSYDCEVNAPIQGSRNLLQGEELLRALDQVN", "UniProt P36402": "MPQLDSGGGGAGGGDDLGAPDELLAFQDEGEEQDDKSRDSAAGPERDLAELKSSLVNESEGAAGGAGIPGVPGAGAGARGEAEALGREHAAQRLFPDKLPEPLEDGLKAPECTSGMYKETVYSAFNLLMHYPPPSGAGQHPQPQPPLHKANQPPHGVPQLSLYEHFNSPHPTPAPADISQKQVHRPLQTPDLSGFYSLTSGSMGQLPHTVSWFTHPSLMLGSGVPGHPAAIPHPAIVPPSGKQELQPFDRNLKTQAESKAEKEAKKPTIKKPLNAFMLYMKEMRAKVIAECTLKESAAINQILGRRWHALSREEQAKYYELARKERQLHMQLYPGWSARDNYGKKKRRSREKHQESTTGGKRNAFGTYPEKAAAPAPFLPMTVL", "UniProt Q9NQB0": "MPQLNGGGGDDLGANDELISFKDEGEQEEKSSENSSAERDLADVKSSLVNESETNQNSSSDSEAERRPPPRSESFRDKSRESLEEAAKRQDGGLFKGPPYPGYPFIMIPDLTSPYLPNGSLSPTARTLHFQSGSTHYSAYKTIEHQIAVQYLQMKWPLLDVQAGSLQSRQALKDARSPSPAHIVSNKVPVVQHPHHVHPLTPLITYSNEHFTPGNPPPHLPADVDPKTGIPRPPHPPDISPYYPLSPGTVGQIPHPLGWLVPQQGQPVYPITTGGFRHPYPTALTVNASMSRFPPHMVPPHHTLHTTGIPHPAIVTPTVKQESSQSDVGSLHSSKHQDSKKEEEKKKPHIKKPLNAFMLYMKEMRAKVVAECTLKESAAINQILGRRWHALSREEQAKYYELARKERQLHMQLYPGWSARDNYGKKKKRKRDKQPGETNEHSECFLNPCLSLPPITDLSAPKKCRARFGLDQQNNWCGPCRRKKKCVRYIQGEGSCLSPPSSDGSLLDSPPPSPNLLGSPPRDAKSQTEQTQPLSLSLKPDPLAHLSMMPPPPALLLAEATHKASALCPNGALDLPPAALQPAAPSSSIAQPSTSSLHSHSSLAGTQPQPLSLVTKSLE"}, "source": "paper PMC8742403", "key": {"[1]": {"target": "β-catenin (human (endogenous in HCT8, HCT15 and LoVo)) (UniProt P35222)", "assay": "co-IP; lysates of 5-FU-R cells (HCT8; HCT15 and LoVo in Fig. S7); anti-β-catenin or anti-HIF-1α antibody covalently immobilised on AminoLink Plus resin (Pierce Co-IP Kit), IgG as negative control; lysis buffer Tris 0.025 M, NaCl 0.15 M, EDTA 0.001 M, NP-40 1%, glycerin 5%; overnight at 4 °C; eluate analysed by Western blotting"}, "[2]": {"target": "hypoxia inducible factor 1α (human (endogenous in HCT8, HCT15 and LoVo)) (UniProt Q16665)", "assay": "co-IP; lysates of 5-FU-R cells (HCT8; HCT15 and LoVo in Fig. S7); anti-β-catenin or anti-HIF-1α antibody covalently immobilised on AminoLink Plus resin (Pierce Co-IP Kit), IgG as negative control; lysis buffer Tris 0.025 M, NaCl 0.15 M, EDTA 0.001 M, NP-40 1%, glycerin 5%; overnight at 4 °C; eluate analysed by Western blotting"}, "[3]": {"target": "β-catenin (human (endogenous in HCT8, HCT15 and LoVo)) (UniProt P35222)", "assay": "co-IP; lysates of WT cells (HCT8; HCT15 and LoVo in Fig. S7); anti-β-catenin or anti-HIF-1α antibody covalently immobilised on AminoLink Plus resin (Pierce Co-IP Kit), IgG as negative control; lysis buffer Tris 0.025 M, NaCl 0.15 M, EDTA 0.001 M, NP-40 1%, glycerin 5%; overnight at 4 °C; eluate analysed by Western blotting"}, "[4]": {"target": "hypoxia inducible factor 1α (human (endogenous in HCT8, HCT15 and LoVo)) (UniProt Q16665)", "assay": "co-IP; lysates of WT cells (HCT8; HCT15 and LoVo in Fig. S7); anti-β-catenin or anti-HIF-1α antibody covalently immobilised on AminoLink Plus resin (Pierce Co-IP Kit), IgG as negative control; lysis buffer Tris 0.025 M, NaCl 0.15 M, EDTA 0.001 M, NP-40 1%, glycerin 5%; overnight at 4 °C; eluate analysed by Western blotting"}}, "note": "These are yes or no findings as the source states them, for the method shown. In cells and extracts the contact can be indirect. Some binding calls cover weakened binding; strength is not graded here.", "data": [{"substance": "TCF1 (from UniProt P36402 1-384)", "values": [{"measurement": "binding", "setting": "[1]", "value": "binds"}, {"measurement": "binding", "setting": "[2]", "value": "binds"}, {"measurement": "binding", "setting": "[3]", "value": "no binding (condition: in WT cells (not 5-FU-resistant))"}, {"measurement": "binding", "setting": "[4]", "value": "no binding (condition: in WT cells (not 5-FU-resistant))"}]}, {"substance": "TCF4 (from UniProt Q9NQB0 1-619)", "values": [{"measurement": "binding", "setting": "[2]", "value": "no binding"}, {"measurement": "binding", "setting": "[4]", "value": "no binding"}]}, {"substance": "hypoxia inducible factor 1α (from UniProt Q16665 1-826)", "values": [{"measurement": "binding", "setting": "[1]", "value": "binds"}, {"measurement": "binding", "setting": "[3]", "value": "binds"}]}]}
